These are yes or no findings as the source states them, for the method shown. In cells and extracts the contact can be indirect. Here binding means that the protein was enriched with, or labelled near, the bait; the list need not be complete. For part of these data: A no says only that the protein was not detected with the bait.
Tests used:
[1] = biological target: protein A-tagged Nurf55mut (D. melanogaster) (UniProt Q24572); assay: affinity purification with mass spectrometry; protein A-tagged Nurf55 or Nurf55mut stably expressed in Dmel-2 cells; purified on IgG beads; interactors identified by mass spectrometry
[2] = biological target: protein A-tagged wild-type Nurf55 (D. melanogaster) (UniProt Q24572); assay: as above
[3] = biological target: GFP-tagged wild-type Nurf55 (D. melanogaster) (UniProt Q24572); assay: affinity purification with mass spectrometry; GFP-tagged Nurf55 or Nurf55mut stably expressed in Dmel-2 cells; purified on beads with a covalently attached anti-GFP nanobody; mass spectrometry, in triplicate

Chains of the proteins cited; added tags and fusions are not shown. Lines headed by an entry give the natural chain unless they say otherwise; changes in a name come on top. A line that says so, or that is headed by a name, gives the form on record, which may keep a tag or linker.
UniProt Q24572: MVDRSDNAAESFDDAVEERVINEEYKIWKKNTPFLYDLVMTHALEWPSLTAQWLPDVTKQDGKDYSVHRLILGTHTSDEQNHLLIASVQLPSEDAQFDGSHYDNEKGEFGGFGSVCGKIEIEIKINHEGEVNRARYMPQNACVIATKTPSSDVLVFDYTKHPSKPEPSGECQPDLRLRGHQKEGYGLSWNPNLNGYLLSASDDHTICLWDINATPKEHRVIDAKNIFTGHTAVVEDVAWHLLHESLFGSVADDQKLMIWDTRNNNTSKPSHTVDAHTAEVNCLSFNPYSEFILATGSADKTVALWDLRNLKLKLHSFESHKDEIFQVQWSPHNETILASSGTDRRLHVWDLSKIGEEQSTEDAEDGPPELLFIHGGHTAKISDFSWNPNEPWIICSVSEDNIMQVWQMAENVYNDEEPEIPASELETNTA
protein A-tagged Nurf55mut (Q24572, form named): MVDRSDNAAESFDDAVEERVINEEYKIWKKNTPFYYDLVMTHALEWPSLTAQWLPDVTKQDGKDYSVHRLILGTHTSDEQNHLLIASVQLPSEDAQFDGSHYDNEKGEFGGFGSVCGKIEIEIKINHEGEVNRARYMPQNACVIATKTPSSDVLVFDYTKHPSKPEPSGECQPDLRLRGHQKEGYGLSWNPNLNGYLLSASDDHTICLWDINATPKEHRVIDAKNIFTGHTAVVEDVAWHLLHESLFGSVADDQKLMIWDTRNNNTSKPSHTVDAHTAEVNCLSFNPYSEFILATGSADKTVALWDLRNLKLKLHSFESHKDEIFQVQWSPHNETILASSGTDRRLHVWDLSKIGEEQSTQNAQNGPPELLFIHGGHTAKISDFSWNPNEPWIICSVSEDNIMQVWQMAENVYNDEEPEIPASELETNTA

B1: MTA-like (protein, UniProt Q9VNF6 1-880)
chain: MATNMYRVGDYVYVETTPNSPYLIRRIEELNKNQTGNVEAKVMCFYRRRDLPNPLVQLADKHQLATAEDSPLATKLKKTWLRTPVSEEQAAQAVLDPSIAALDEERTSPTQTSGGGGSATGNSGSNSSGTSNNNSSSTAIGGGAGGSGGAGGDAEKGEALTSKQRYQIKHRELFLSRQVESIPATQIRGKCSVTLLNETESLQSYLNKDDTFFYCLVFDPNQKTLLADKGEIRVGSRYQCDIPAKLKDTATDDRKLEELESLVWTPEHSLTDRKIDQFLVVSRSIGTFARALDCSSSVKQPSLHMSAAAASRDITLFHAMNILHKHEYSIEESMSSLVPSTGPVLCRDEIEDWSASEANLFEEALEKYGKDFNDIRQDFLPWKTLKQIIEYYYMWKTTDRYVQQKRVKAVEAELKLKQVYIPQYNNNGKGNGTSTKAGGGIYNGTTNGSTDLSSNGKPCESCGTTKSSQWNSVSSGHSTSRLCLSCWEYWRRYGSMKSATKGDAGEGDAKKKSSSAASTPTATLAGLATTPTAVVDLNDDEKISDLTNRQLHRCSIVNCGKEFKLKTHLARHYAQAHGIAISSGSPRPIMKTRTAFYLHTNPMTRVARAICRSIVKPKKAARQSAYAINAMLVKQEFTNRISGKSQAEIKKLLLLKPKDRGSVTKIANRLGAPGSGPHEWLVLTPKDKMPLPAVVSFPKPPKAPDGSLVYDRVPNKSPDVVAVPADKELTIIPTQATSTIRKRAHEDQQLNGTEVTIVPSGPPAKRPNKDPMPSHCPSPEQFAAMMAASGQPLSRHHLNGKQKIAQMARGGNGRKQVISWMDAPDDVYFRANDTHKKTRKILSAVDLRRAARKPWRTLPIKPAAPEPSSRPIESQIVILD
Q: What does the source list for B1?
A: binding [1]: no binding; binding [2]: binds; binding [3]: binds

Reference: publication PMC4139204, “Insight into the Architecture of the NuRD Complex” (The Journal of Biological Chemistry, 2014)
